PubChem BioAssay AID1259405 – NCATS – 2018

Assay: 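Mouse-designed siRNAs used to find CHO productivity engineering targets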 (primary screen)
System: Chinese hamster CHO-K1 ovary cells with stable secreted eGFP expression
Reagent: single siRNA against mouse genes, 0.8 pmol siRNA per well (2 µl of 400 nM stock)
Duration: 3 days
Measurement: 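Per-well intracellular GFP measured by laser scanning cytometry, plus viability from ATP luminescence, each relative to plate median of non-targeting control wells, in %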
Reading the numbers: GFP, % of control: higher = more GFP per well, higher productivity; viability (ATP), % of control: higher = more viable cells (more ATP)
Rule for the call: 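a knock-down is called active if GFP reaches 120% or more of non-targeting control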
The deposit covers about 50,000 reagents; shown is an unselected part. Over the whole deposit, about 4,000 (8%) are marked active. 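Mouse siRNA library applied to hamster cells; one well for each siRNA.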 The numbers tell different reagents against one gene apart.

gene knocked down | siRNA no. | GFP, % of control | viability (ATP), % of control | Call
Egr4 | 1 | 66.1 | 81.7 | inactive
Egr4 | 2 | 67.7 | 88.3 | inactive
Sars2 | 1 | 73.7 | 75.4 | inactive
Sars2 | 2 | 99.7 | 96.8 | inactive
Ca10 | 1 | 106 | 110 | inactive
Ca10 | 2 | 107 | 97 | inactive
Cryba2 | 1 | 87.5 | 83.7 | inactive
Cryba2 | 2 | 97.1 | 58 | inactive
Cryba2 | 3 | 80 | 108 | inactive
Zbtb1 | 1 | 101 | 108 | inactive
Zbtb1 | 2 | 83.4 | 66.8 | inactive
Zbtb1 | 3 | 105 | 84.9 | inactive
Kbtbd12 | 1 | 72.8 | 79.9 | inactive
Kbtbd12 | 2 | 66.6 | 73.8 | inactive
Kbtbd12 | 3 | 81.9 | 78.3 | inactive
Itih2 | 1 | 82.3 | 96.3 | inactive
Itih2 | 2 | 80.9 | 85.4 | inactive
Itih2 | 3 | 73.4 | 62.5 | inactive
Arid3c | 1 | 78.2 | 98.6 | inactive
Arid3c | 2 | 77.7 | 73.6 | inactive
Arid3c | 3 | 64.4 | 77.9 | inactive
Brd7 | 1 | 59.3 | 61.9 | inactive
Brd7 | 2 | 78.6 | 99 | inactive
Brd7 | 3 | 38.4 | 55.2 | inactive
Or8b54 | 1 | 65.5 | 60.5 | inactive
Or8b54 | 2 | 61.3 | 71 | inactive
Or8b54 | 3 | 109 | 100 | inactive
Rev1 | 1 | 64.9 | 80.2 | inactive
Rev1 | 2 | 71 | 59.5 | inactive
Rev1 | 3 | 64.6 | 56 | inactive

Continued (9 carried over from the part before).
gene knocked down | siRNA no. | GFP, % of control | viability (ATP), % of control | Call
Brd7 | 1 | 59.3 | 61.9 | inactive
Brd7 | 2 | 78.6 | 99 | inactive
Brd7 | 3 | 38.4 | 55.2 | inactive
Or8b54 | 1 | 65.5 | 60.5 | inactive
Or8b54 | 2 | 61.3 | 71 | inactive
Or8b54 | 3 | 109 | 100 | inactive
Rev1 | 1 | 64.9 | 80.2 | inactive
Rev1 | 2 | 71 | 59.5 | inactive
Rev1 | 3 | 64.6 | 56 | inactive
Ablim2 | 1 | 68.1 | 56.4 | inactive
Ablim2 | 2 | 65.1 | 72.4 | inactive
Ablim2 | 3 | 99.4 | 58.8 | inactive
Kpnb1 | 1 | 72.7 | 43.6 | inactive
Kpnb1 | 2 | 142 | 51.8 | active
Kpnb1 | 3 | 83.2 | 26.5 | inactive
Crygs | 1 | 99.1 | 104 | inactive
Crygs | 2 | 78.7 | 71.5 | inactive
Crygs | 3 | 135 | 114 | active
Rbm4b | 1 | 80 | 94.9 | inactive
Rbm4b | 2 | 115 | 73.3 | inactive
Rbm4b | 3 | 49.8 | 51.1 | inactive
Lrtm2 | 1 | 29.4 | 36.9 | inactive
Lrtm2 | 2 | 64.9 | 48.9 | inactive
Lrtm2 | 3 | 78.6 | 67.4 | inactive
Acly | 1 | 74.4 | 91.3 | inactive
Acly | 2 | 87.2 | 58.4 | inactive
Acly | 3 | 95 | 67.5 | inactive
Slc5a8 | 1 | 71.6 | 46.6 | inactive
Slc5a8 | 2 | 81.8 | 62.2 | inactive
Slc5a8 | 3 | 115 | 69 | inactive
Mark1 | 1 | 35.4 | 54 | inactive
Mark1 | 2 | 72.5 | 76.9 | inactive
Klhl2 | 1 | 55.9 | 54 | inactive
Klhl2 | 2 | 155 | 105 | active
Wscd1 | 1 | 73.5 | 61.8 | inactive
Wscd1 | 2 | 87.3 | 92.3 | inactive
Wscd1 | 3 | 44.6 | 35.7 | inactive
Arhgap1 | 1 | 150 | 134 | active
Arhgap1 | 2 | 139 | 54.4 | active
Llgl2 | 1 | 60.3 | 53.1 | inactive
Llgl2 | 2 | 59.8 | 74.6 | inactive
Llgl2 | 3 | 51.9 | 39 | inactive
Gm1968 | 1 | 60.3 | 67 | inactive
Gm1968 | 2 | 81.6 | 98.9 | inactive
Gm1968 | 3 | 93.3 | 77.2 | inactive
Rbp4 | 1 | 85.6 | 87.6 | inactive
Rbp4 | 2 | 88.8 | 108 | inactive
Rbp4 | 3 | 78.3 | 72.8 | inactive
Bmpr1a | 1 | 73.4 | 73.5 | inactive
Arhgap15 | 1 | 124 | 92.9 | active
Arhgap15 | 2 | 67.5 | 86.6 | inactive
Arhgap15 | 3 | 59.6 | 38.9 | inactive
Aldh1a3 | 1 | 47.8 | 34.9 | inactive
Aldh1a3 | 2 | 143 | 80.9 | active
Aldh1a3 | 3 | 85 | 87.1 | inactive
Acbd5 | 1 | 65.1 | 55.2 | inactive
Acbd5 | 2 | 48.9 | 60.8 | inactive
Acbd5 | 3 | 64 | 67 | inactive
Nhlrc1 | 1 | 79.5 | 84.5 | inactive
Nhlrc1 | 2 | 101 | 93.2 | inactive
Nhlrc1 | 3 | 75.4 | 99.9 | inactive
Xlr | 1 | 85.2 | 97.5 | inactive
Xlr | 2 | 106 | 75.4 | inactive
Xlr | 3 | 94.3 | 102 | inactive
